Results of single-concentration screens

Amino acid sequences for entries named in this document (tags omitted). Residues count along the entry.
UniProt A4I591, 1-473: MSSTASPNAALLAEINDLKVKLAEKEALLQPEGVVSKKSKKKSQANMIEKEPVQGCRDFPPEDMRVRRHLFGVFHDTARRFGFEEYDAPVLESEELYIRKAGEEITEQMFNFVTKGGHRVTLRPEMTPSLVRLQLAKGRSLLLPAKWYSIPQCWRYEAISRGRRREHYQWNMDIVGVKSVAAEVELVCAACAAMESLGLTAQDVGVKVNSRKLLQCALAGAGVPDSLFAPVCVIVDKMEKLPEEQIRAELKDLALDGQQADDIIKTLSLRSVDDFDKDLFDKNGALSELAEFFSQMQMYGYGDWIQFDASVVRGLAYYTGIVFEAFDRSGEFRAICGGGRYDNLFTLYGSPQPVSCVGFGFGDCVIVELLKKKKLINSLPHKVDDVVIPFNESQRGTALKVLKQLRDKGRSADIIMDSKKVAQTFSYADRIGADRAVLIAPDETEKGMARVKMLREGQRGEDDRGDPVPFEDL
UniProt P9WFT3, whole entry: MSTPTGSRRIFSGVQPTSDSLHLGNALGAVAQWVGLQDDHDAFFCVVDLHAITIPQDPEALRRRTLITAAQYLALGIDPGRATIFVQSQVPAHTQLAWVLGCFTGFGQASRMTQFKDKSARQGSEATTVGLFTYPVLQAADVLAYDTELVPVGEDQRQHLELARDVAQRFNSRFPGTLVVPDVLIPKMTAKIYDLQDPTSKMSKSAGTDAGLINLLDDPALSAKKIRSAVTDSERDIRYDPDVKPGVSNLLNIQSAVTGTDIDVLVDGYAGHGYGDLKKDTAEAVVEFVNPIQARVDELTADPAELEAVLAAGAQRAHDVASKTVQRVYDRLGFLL
UniProt P9WNZ1, whole entry: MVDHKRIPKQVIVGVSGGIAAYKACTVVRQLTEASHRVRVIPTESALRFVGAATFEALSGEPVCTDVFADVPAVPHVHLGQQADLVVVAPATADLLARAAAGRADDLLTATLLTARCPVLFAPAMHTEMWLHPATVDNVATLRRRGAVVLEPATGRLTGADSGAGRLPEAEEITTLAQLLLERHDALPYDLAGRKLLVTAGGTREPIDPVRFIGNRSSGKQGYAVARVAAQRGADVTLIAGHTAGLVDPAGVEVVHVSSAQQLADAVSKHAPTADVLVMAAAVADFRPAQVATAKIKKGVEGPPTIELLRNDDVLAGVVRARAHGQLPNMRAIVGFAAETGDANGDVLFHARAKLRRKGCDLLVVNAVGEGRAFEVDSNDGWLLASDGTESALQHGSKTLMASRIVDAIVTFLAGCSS

Source: ChEMBL document CHEMBL3988442, “University of Dundee, Small-Polar-MMV Screening Library” (2021).

LiHisRS: 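Histidine-tRNA ligase, Leishmania infantum (UniProt A4I591). Enzyme assay of histidyl-tRNA synthetase; the read-out is not stated. Tested at 30 µM. Higher reads as stronger inhibition (inferred: compounds with an IC50 in retests scored well above the rest). The assay is labelled LdHisRS but filed under L. infantum. Of about 69,000 compounds tested this way, about 410 (0.6%) reached 50% or more in at least one test.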
MtTrpRS: 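Enzyme assay of tryptophanyl-tRNA synthetase; the read-out is not stated. Target: Tryptophan-tRNA ligase, Mycobacterium tuberculosis (UniProt P9WFT3). Tested at 10 µM. Higher most likely means stronger inhibition; the record gives no direction and few retests gave an IC50. Of about 65,000 compounds tested this way, about 64 (0.098%) reached 50% or more in at least one test.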
CoaBC: 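Coenzyme A biosynthesis protein CoaBC, Mycobacterium tuberculosis (UniProt P9WNZ1). Enzyme assay of CoaBC with a phosphate dye (Biomol Green) read at 650 nm. Concentration: 30 µM. Higher reads as stronger inhibition, judged from the few compounds that gave an IC50. Most strong results did not repeat in a second test. Size under these conditions: about 67,000 compounds, about 40 of them at 50% or above in at least one test.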

Results are given as percent effect.
The record does not define 0% and 100%; most values in the screen are far below 50% and negative numbers occur (in some assays of this library far below -100).
Compounds were drawn at random from those tested, without regard to their results.
Two or more numbers in one place are separate tests of the same structure; such repeats can differ widely.
A dash means the value is not listed here; it may have been measured.

Compound	LiHisRS	MtTrpRS	CoaBC
CN(Cc1ccccc1)CC(O)Cn1cnc2c(Cl)cc(Cl)cc2c1=O (stereo not given)	4.63	-6.15	2.895
CC(C)(O)CCc1ccc(C(=O)NCCC2CCOC2)cc1 (stereo not given)	14.75	-0.6299	-0.5115
CN(c1ccc(C(C)(C)C)cc1)S(=O)(=O)c1cc(C(=O)O)cs1	9.524	0.8607	1.068
CCC(C)N(Cc1ccncc1)Cc1ccccc1Cn1cccn1 (stereo not given)	18.42	1.767	2.016
c1ccc(-c2ncn(CCCN3CCOCC3)c2-c2ccncc2)cc1	7.895	-3.846	5.645
CNC(=O)CN(C)c1nc(-c2ccncc2)nc2c1CCN(C(C)=O)C2	11.43	3.759	4.825
CCc1nnc(CN(C)Cc2nc(-c3ccccc3Cl)oc2C)o1	12.7	0.8258	2.733
CS(=O)(=O)N1CCOCC2(CN(Cc3ccccn3)CCO2)C1 (stereo not given)	16.22	-1.907	9.234
COc1ccc(CN2CC(O)CN(C(=O)OCC(C)C)CC2=O)cc1 (stereo not given)	12.24	-	0
CCN(CC)Cc1cc(=O)n2c(n1)CN(C(=O)c1ccnnc1)CCC2	24.53	-	1.951
O=C1NC(C(=O)NCc2cccnc2Oc2ccc(F)cc2F)CO1 (stereo not given)	8.434	1.071	6.148
Fc1ccc(-c2ccc(CNC3CCc4ncnn4C3)o2)cc1 (stereo not given)	23.53	-2.279	1.222
Cc1cc(OCC(=O)NS(=O)(=O)c2c(C)noc2C)ccc1Cl	-14.89	3.638	0.7772
CCn1cnnc1CNC(=O)N1CCOCC1	1.351	-0.2534	5.085
CCn1nccc1CNC(=O)C1CC1	25.47	-2.403	-5.909
Cc1nc(C)n(CC2CN(CCCOc3ccc(F)cc3)CCO2)n1 (stereo not given)	13.79	-0.4172	5.744
O=C(Nc1ccc2c(c1)OCO2)N1CCCC1c1ccco1 (stereo not given)	4.918	-1.847	3.004
CS(=O)(=O)N1CCC(c2nnc3ccc(C(=O)N4CCCC4)cn23)C1 (stereo not given)	17.65	-3.739	4.505
O=C(CN1CCCC1c1nc(-c2ccccn2)no1)N1CCOCC1 (stereo not given)	21.88	3.749	8.026
Cn1cnc2c1CCN(Cc1cccc(OCC(N)=O)c1)C2	4.255	0.9651	10.88
O=C(COC[C@@]12CCC[C@@H]1CN(C1CCC1)C2)N1CCCC1	6.364	-	-0.4938
NC(=O)C(CNC(=O)Cc1ccc(F)cc1)Cc1ccc(F)cc1 (stereo not given)	8.571	-2.86	4.453
CC(C(=O)NC1CCCC1)S(=O)(=O)Cc1noc(C(C)(C)C)n1 (stereo not given)	0	0.854	-0.2198
O=C(c1cscn1)N1CCc2ncnc(-c3ccncc3)c2CC1	-11.32	-	-0.4878
CC1CCN(CCNC(=O)c2ccccc2N2CCOCC2)CC1	-41.9	-0.4112	6.667
CCS(=O)(=O)c1ccccc1N1CCC(NC(=O)c2ccc[nH]2)CC1	-12.31	2.041	6.071
Cc1ccoc1C(=O)N1CCNCC1C(=O)NCc1ccncc1 (stereo not given)	11.97	-1.356	3.846
CC(OCCCNC(=O)c1cccnc1O)c1ccccc1 (stereo not given)	-2.74	3.902	6.719
Cn1c(CN2CCN(c3cccnc3)CC2)cc2ccccc21	19.67	1.417	1.279
COc1ccccc1C1CCN(c2ccc3cc[nH]c3n2)CC1	6.25	-4.123	4.884
CC(C)SCC(=O)N1CCCn2nc(C(=O)Nc3ccccc3)cc2C1	14.29	-2.309	-5.896
COc1ccc(-c2n[nH]cc2CN(C)Cc2ccoc2)c(F)c1	13.43	0.273	-4.418
CN(C)Cc1noc2c1CN(Cc1ccc[nH]1)CC2	-26.42	-	0.7317
COc1ccc(-c2cc[nH]n2)cc1CNC1CCCC1	7.895	-3.846	-3.629
c1csc(CN2CCO[C@H]3[C@H](OCC4CCCC4)CC[C@@H]32)n1	28.57	-1.302	4.56
COc1ccc(S(=O)(=O)C(C)C(=O)NCCOc2cccc(C)c2)cc1 (stereo not given)	11.61	-3.431	7.54
CCOCCC(=O)NC(c1noc(C)n1)c1ccccc1F (stereo not given)	9.804	-2.878	3.067
CCCN1CCN(C(=O)c2ccc(Cl)cn2)[C@H]2CS(=O)(=O)C[C@H]21	25	-3.159	6.349
Cc1noc(-c2ccc(N[C@H]3CCCCNC3=O)nc2)n1	10.45	-0.273	-5.622
OCCc1cn(CC2CCCN(Cc3nccs3)C2)nn1 (stereo not given)	19.44	5.832	9.524
O=C(Cc1c[nH]c2ccccc12)NCC1CCN(Cc2c[nH]cn2)C1 (stereo not given)	19.66	3.774	-36.13
CC(C)Cc1cc(C(=O)NC(C)(CO)CO)n(C)n1	4	-4.08	0
c1nc(CNC2CCOCC2)c2n1CCCN(CC1CC1)C2	-2.752	-0.382	2.231
O=C(NCC1CCC1)c1ccc(-n2ccnc2)nn1	17.7	2.581	3.789
CNC(=O)CN1CCO[C@H]2CN(C(=O)c3ccncc3F)C[C@H]21	8.547	-1.647	-
c1cc(N2CCSCC2)ccc1CNc1cncc2nnnn12	12.9	2.25	1.235
O=c1ccc(-c2cccs2)nn1CN1CCCCCC1	25.24	-4.422	14.4
NC(=O)C1CCN(C(=O)c2ccc(OCc3cscn3)cc2)CC1	12.04	26.34	0.2632
CC(C)NC(=O)c1ccc2c(c1)C1(CCN(C)CC1)C(=O)N2	2.778	-7.713	-14.57
O=C(C1CCC1)N1CCC2(CCNCC2)C1	1.942	-4.285	-1.272
CC(c1nc(-c2ccccc2)no1)N1CCc2c(ncn2C2CC2)C1 (stereo not given)	21.67	0.07128	10.58 and 21.59
CC(Oc1ccc(C(=O)NCCNS(C)(=O)=O)cn1)c1ccccc1 (stereo not given)	13.39	-7.751	10.32
CCc1ncc2c(n1)CN(CC(=O)Nc1nnc(C)s1)CC2	12.16	3.294	1.956
Cc1ccc(C(O)CNC(=O)c2cccnc2O)cc1 (stereo not given)	16	-4.816	4.39
c1cncc(CNCc2cccs2)c1	0	3.057	-0.9501
COCc1noc(-c2ccc(N3CCCCC3COC)nc2)n1 (stereo not given)	-19.44	-5.103	0
CC(=O)N1CC[C@H]2CC(=O)N(Cc3ccc4c(c3)OCO4)CC[C@H]2C1	25	-5.798	2.483
CCc1ccc(C(=O)NC[C@H]2CCCN2C(=O)c2ccc(CC)o2)o1	6.218	0.5112	3.694
O=C(c1cc[nH]n1)N1CCCC1c1ccccn1 (stereo not given)	7.586	0.7843	-0.8653
Cc1noc(C)c1CN1C[C@@H]2COC[C@]2(COc2ccc(C#N)cn2)C1	22.58	-2.553	1.603
COC(=O)C1CN(Cc2ccc(-c3ccncc3)cc2F)C[C@@H](C)O1 (stereo not given in full)	10	-8.058	5.104